This is one part of the list.
The compounds below were run on T1, CTL2-GFP (C. trachomatis L2/434/Bu, GFP-expressing). Conditions: bulk GFP, single well; 28.5 h, 10 µM; inhibitor.
T1 construct: L2/434/Bu, GFP-expressing
Set-up: species or system HeLa; Intracellular C. trachomatis growth in HeLa cells, bulk GFP fluorescence relative to DMSO

Row | Structure (SMILES) | % of control remaining [%]
1 | COc1ccc(-c2cn(-c3ccc4c(c3)CCO4)nn2)cc1 [CBK113027] | 100
2 | NC(=O)CN(Cc1ccc(Cl)cc1)S(=O)(=O)c1ccccc1 [CBK264149] | 117.458
3 | CC(C)NC(=O)CCNc1ncc(C(N)=O)cc1Cl [CBK306373] | 90.7464
4 | Cc1ccc(S(=O)(=O)Nc2c(C(=O)N3CCOCC3)[nH]c3ccccc23)cc1 [CBK050066] | 118.481
5 | Nc1ncc(-c2cc3ccccc3s2)nc1-c1ccc(CCC(=O)O)cc1 [CBK064134] | 149.734
6 | COc1ccc(C2CC(c3ccccc3O)=NN2)cc1 (stereo not shown) [CBK287281] | 156.078
7 | CCn1c2ccccc2c2cc(Nc3cc(-c4ccc(OC(F)(F)F)cc4)ncn3)ccc21 [CBK090842] | 123.569
8 | O=C(O)CCCCCNc1ncnc2sc3c(c12)CCCC3 [CBK077446] | 92.2309
9 | COc1ccccc1C1OC(=O)C[C@@H]1C(=O)Nc1cc(C(C)(C)C)on1 (stereo partly shown) [CBK021439] | 107.244
10 | CC(C)NC(=O)NC[C@H]1C[C@@H]2CC[N@]1C[C@@H]2CN1CCN(c2ncccn2)CC1 [CBK289116] | 128.119
11 | O=[N+]([O-])c1cccc(S(=O)(=O)NCc2ccccn2)c1 [CBK263669] | 112.268
12 | Cc1cnc(CNC(=O)/C=C/c2ccc(C(C)C)cc2)cn1 [CBK149625] | 101.739
13 | CCOC(=O)NC(=O)CSc1nnc(C2COc3ccccc3O2)n1-c1ccccc1 (stereo not shown) [CBK297884] | 144.967
14 | COCc1ccccc1Cn1cnc2ccccc21 [CBK267496] | 88.0323
15 | CC(C)(C)OC(=O)Nc1cc(Cl)ccc1C(=O)O [CBK200024] | 174.467
16 | CC(C)(C)C(=O)NC(NC(=S)Nc1sc2c(c1C(N)=O)CCCC2)C(Cl)(Cl)Cl (stereo not shown) [CBK261052] | 82.9659
17 | OCCN(CCO)c1cncc(-c2ccc(F)c(Cl)c2)n1 [CBK066015] | 218.254
18 | N#Cc1c(O)nc(SCC(=O)Nc2ccc(Oc3ccccc3)cc2)nc1-c1ccccc1 [CBK266607] | 109.95
19 | COc1cc(CN2CCN(C/C=C/c3ccccc3)CC2)cc(I)c1O [CBK261882] | 90.4175
20 | Cc1cnc2[nH]c(C(C)C)c(CN(C)C)c2c1 [CBK284758] | 143.764
21 | CC(C)(C)OC(=O)NCCNCc1ccccc1Br [CBK056693] | 169.271
22 | NS(=O)(=O)c1cc(C(=O)OCCNC(=O)c2ccccc2)c(Cl)cc1Cl [CBK265193] | 133.187

2 successive compounds from above, for reference:
Row | Structure (SMILES) | % of control remaining [%]
7 | CCn1c2ccccc2c2cc(Nc3cc(-c4ccc(OC(F)(F)F)cc4)ncn3)ccc21 [CBK090842] | 123.569
8 | O=C(O)CCCCCNc1ncnc2sc3c(c12)CCCC3 [CBK077446] | 92.2309

From publication PMC12040169 (PLOS Biology, 2025)
